This passage reports binding results from US20150025016A1 (COMMISSARIAT A L ENERGIE ATOMIQUE ET AUX ENERGIES …, published 2015).

Chains of the proteins cited; added tags and fusions are not shown. Residues count along the entry.
UniProt Q9Y294, residues 1-156: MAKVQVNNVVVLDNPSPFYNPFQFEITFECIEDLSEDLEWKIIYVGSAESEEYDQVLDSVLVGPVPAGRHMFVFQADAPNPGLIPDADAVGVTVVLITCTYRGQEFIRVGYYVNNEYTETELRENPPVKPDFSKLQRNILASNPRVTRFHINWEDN

The target of assay [1] is Asf1 (1-156), conserved N-terminal domain of human Asf1 (human) (UniProt Q9Y294). The experiment in a line: ITC (microcalorimetry).
Assay [2] shares this target. The experiment in a line: NMR structure of the complex.
Assay [3] has the same target. The experiment in a line: crystal structure of the complex.
The target is the same in assay [4]. Nature of the assay: X-ray crystallography of the complex.

Results are given in words; binding and its absence hold for the method and conditions named. Some binding calls cover weakened binding; strength is not graded here. For some assays here: Sequences can lack the tags named with a protein.

With ASTERKWAELARRIAGAGGVTLNGFG [Peptide i5_Aloop], the binding result in assay [1] is “binds”.

As to ASTERKWAELARRIRGAGGATLNGFG [Peptide i5_loopA], in assay [1], the binding result is listed as “binds”.

On to ASTERKWAELARRIRGAGGRTLNGFG [Peptide i5_loopR], for which the binding result in assay [1] is reported as “binds”.

For ASTEEKWARLARRIRGAGGVTLNGFG [Peptide i5_s3], in assay [1], the binding entry was “binds”.

Take ASTERKWAELARRIRGAGGVTLDGFG [Peptide i5_D]: in assay [1], the binding entry is reported as “binds”.

B1: peptide i1 (fragment of histone H3, α3 helix) (peptide)
peptide: GAMGTIMPKDIQLARRIRG
notes: The N-terminal GAMG comes from the cloning vector
For B1, the binding entry in assay [2] is recorded as “binds”.

With GAMGTLTPKEAELARRIRGAGGRTLNGFG [inhibitor peptide Asf1/H3-H4, peptide i4], the binding entry in assay [3] and in assay [4] was “binds” in each case.
